Assay results reported in patent US10865191B2, “Heterocyclic compounds useful as modulators of TNF alpha” (BRISTOL-MYERS SQUIBB COMPANY, priority 2015, dated 2020).
Some entries share one result that the patent states for a list of compounds.

By UniProt entry, the sequences of proteins in these tests, tags left out. Residues count along the entry.
UniProt P01375, 77-233 limits assumed: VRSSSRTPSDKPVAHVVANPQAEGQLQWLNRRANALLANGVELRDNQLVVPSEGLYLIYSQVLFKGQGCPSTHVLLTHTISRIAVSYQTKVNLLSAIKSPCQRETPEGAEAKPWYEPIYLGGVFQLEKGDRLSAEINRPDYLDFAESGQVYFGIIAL

Target: TNFα (Homo sapiens, UniProt P01375)
Experiment: TNF induced HEK-Blue assay (NF-kB-driven secreted alkaline phosphatase reporter)
Type: cell-based
Details: TNFα 0.5 ng/mL, HEK-Blue-CD40L cells, 18 h; read-out: IC50 values measured in the TNF induced HEK-Blue assay
Procedure, shortened: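 HEK-Blue-CD40L cells (NF-kB-driven SEAP reporter), 20,000/well, added after 30 min pre-incubation of compound (0.004–25 μM final) with TNFα 0.5 ng/mL final at 37 °C; 18 h incubation. SEAP read with QUANTI-Blue at 620 nm; IC50 from 4-parameter logistic fit, normalized to unstimulated and stimulated DMSO controls.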

IC50 [µM]	SMILES
≤ 25	COC(=O)[C@H](CNC(C)=O)N1CCN(c2ncc(-c3ccc4ncc(Cl)c(N[C@H](C)c5ccccc5F)c4c3)cn2)CC1 [Example 109, methyl (S)-3-acetamido-2-(4-(5-(3-chloro-4-(((R)-1-(2-fluorophenyl)ethyl)amino)quinolin-6-yl)pyrimidin-2-yl)piperazin-1-yl)propanoate]
≤ 25	C[C@@H](Nc1c(Cl)cnc2ccccc12)c1cc(-c2cnn(CCN3CCOCC3)c2)ccc1F [Example 480, (R)-3-chloro-N-(1-(2-fluoro-5-(1-(2-morpholinoethyl)-1H-pyrazol-4-yl)phenyl)ethyl)quinolin-4-amine]
≤ 25	C[C@@H](Nc1c(Cl)cnc2ccc(-c3cnc(NC4(C(N)=O)CC4)nc3)cc12)c1ccccc1F [Example 587, (R)-1-((5-(3-chloro-4-((1-(2-fluorophenyl)ethyl)amino)quinolin-6-yl)pyrimidin-2-yl)amino)cyclopropane-1-carboxamide]
≤ 25	CC(Nc1c(Cl)cnc2cc(F)c(-c3cnc(C(O)CN4CCOCC4)cn3)cc12)c1ccccc1F (stereo not shown) [Example 273, 1-(5-(3-chloro-7-fluoro-4-((1-(2-fluorophenyl)ethyl)amino)quinolin-6-yl)pyrazin-2-yl)-2-morpholinoethan-1-ol]
≤ 25	Cc1ncccc1-c1ccc(F)c([C@@H](C)Nc2c(Cl)cnc3ccccc23)c1 [Example 475, (R)-3-chloro-N-(1-(2-fluoro-5-(2-methylpyridin-3-yl)phenyl)ethyl)quinolin-4-amine]
≤ 25	CC(C)(O)c1ccc(-c2ccc3ncc(Cl)c(NC(CCF)c4ccccc4F)c3c2)cc1 (racemic) [Example 232, 2-(4-(3-chloro-4-((3-fluoro-1-(2-fluorophenyl)propyl)amino)quinolin-6-yl)phenyl)propan-2-ol]
≤ 25	Cc1nc2ccc(-c3cnc(N4CCOCC4)nc3)cc2c(NC(C)c2ccccc2F)c1Cl (racemic) [Example 311, 3-chloro-N-(1-(2-fluorophenyl)ethyl)-2-methyl-6-(2-morpholinopyrimidin-5-yl)quinolin-4-amine]

The remaining lines, values behind:

SMILES	IC50 [µM]
C[C@@H](Nc1c(Cl)cnc2ccc(-c3cnc(C(C)(C)O)nc3)cc12)c1cc(-c2cccnc2)ccc1F [Example 553, (R)-2-(5-(3-chloro-4-((1-(2-fluoro-5-(pyridin-3-yl)phenyl)ethyl)amino)quinolin-6-yl)pyrimidin-2-yl)propan-2-ol]	≤ 25
C[C@@H](Nc1c(Cl)cnc2cc(F)c(-c3cnc(C(C)(C)O)nc3)nc12)c1cc(C(=O)O)ccc1F [Example 579, (R)-3-(1-((3-chloro-7-fluoro-6-(2-(2-hydroxypropan-2-yl)pyrimidin-5-yl)-1,5-naphthyridin-4-yl)amino)ethyl)-4-fluorobenzoic acid]	≤ 25
CC(Nc1c(Cl)cnc2ccc(-c3cnc(C(C)(C)O)nc3)cc12)[C@H]1CCCNC1 (single isomer, unassigned) [Example 97]	≤ 25
CC(Nc1c(Cl)cnc2ccc(-c3cnc(N4CCNC(=O)C4)nc3)cc12)c1nc(C(N)=O)ccc1F (single isomer, unassigned) [Example 26, 6-(1-((3-chloro-6-(2-(3-oxopiperazin-1-yl)pyrimidin-5-yl)quinolin-4-yl)amino)ethyl)-5-fluoropicolinamide]	≤ 25
O=C(O)[C@@H]1CN(c2ncc(-c3ccc4ncc(Cl)c(N[C@@H](c5ccccc5F)C(F)F)c4c3)cn2)CCN1 [Example 74, (S)-4-(5-(3-chloro-4-(((S)-2,2-difluoro-1-(2-fluorophenyl)ethyl)amino)quinolin-6-yl)pyrimidin-2-yl)piperazine-2-carboxylic acid]	≤ 25
CC(Nc1c(Cl)cnc2ccc(-c3ccc(C(C)(C)O)cc3)cc12)c1ccco1 (racemic) [Example 192, 2-(4-(3-chloro-4-((1-(furan-2-yl)ethyl)amino)quinolin-6-yl)phenyl)propan-2-ol]	≤ 25
